# Assay results: PubChem BioAssay AID720504 (National Center for Advancing Translational Sciences (NCATS), 2013)
# Protein sequences, listed by entry. Tags and fused reporters are not part of them.
# UniProt P53350, whole entry, looked up: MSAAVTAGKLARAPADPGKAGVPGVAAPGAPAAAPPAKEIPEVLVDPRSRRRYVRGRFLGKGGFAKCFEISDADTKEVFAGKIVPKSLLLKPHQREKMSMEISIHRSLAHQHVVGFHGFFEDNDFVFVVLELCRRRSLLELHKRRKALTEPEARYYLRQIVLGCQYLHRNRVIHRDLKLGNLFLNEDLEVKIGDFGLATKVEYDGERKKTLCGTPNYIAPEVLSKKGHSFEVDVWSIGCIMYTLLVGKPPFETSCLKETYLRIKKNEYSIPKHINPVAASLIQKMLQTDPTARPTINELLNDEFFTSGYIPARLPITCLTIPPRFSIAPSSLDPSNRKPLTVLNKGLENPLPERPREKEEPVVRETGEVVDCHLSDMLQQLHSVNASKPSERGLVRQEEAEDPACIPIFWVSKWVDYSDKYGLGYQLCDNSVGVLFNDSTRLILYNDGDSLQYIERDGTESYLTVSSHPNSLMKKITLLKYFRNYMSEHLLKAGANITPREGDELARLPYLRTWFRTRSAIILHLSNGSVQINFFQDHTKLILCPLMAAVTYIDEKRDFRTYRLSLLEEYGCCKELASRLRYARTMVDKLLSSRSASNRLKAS
# “And” between values parts separate entries of the source, which are not always exact repeats. Equal entries are not always repeated. In all, about 360,000 compounds went through this assay and about 10,000 (2.8%) were called active. Inconclusive means that the source gave no clear call. Such entries were picked first, then a sample of the others. Calls come from the whole dose curve; as a rule, active = well fitted inhibition curve with a large enough effect; inconclusive = small, poorly fitted or top-dose-only effect; inactive = flat fitted curve, though single readings scatter. Potencies beside an inconclusive call are fits to weak or partial responses and may not hold up.
# Molecular target: Serine/threonine-protein kinase PLK1 (Homo sapiens) (UniProt P53350)
# Experiment: qHTS for Inhibitors of PLK1-PDB (polo-like kinase 1 - polo-box domain): Primary Screen; note: nearly all actives have a fitted effect of over 65% in size; for max response, negative = inhibition: series mostly up to about 57 µM
# Settings: Plk1 PBD binding of FITC phosphopeptide, fluorescence polarization
# % is set by controls: 0 for no effect and ±100 for the full control effect; potency is the fitted concentration of half-maximal effect.
SMILES,Potency,"max response, negative = inhibition"
O=S(=O)(c1ccc(=S)[nH]c1)N1CCCC1,"inconclusive: 26.7 µM [inhibitor, partial curve]",–
Oc1[nH]c2ccccc2c1N=Nc1ccccc1,"inconclusive: 26.7 µM [inhibitor, single point]",–
COCCN(C(=O)CSc1nc2ccccc2s1)c1c(N)n(Cc2ccccc2)c(=O)[nH]c1=O,"inconclusive: 33.6 µM [inhibitor, partial curve]",–
NC(=O)N/N=C/c1sc(N2CCCCC2)nc1-c1cccs1,–,inconclusive: -31.2% [inhibitor]
CS(=O)(=O)NCc1nnc(SCc2c(F)cccc2Cl)o1,"inconclusive: 23.8 µM [inhibitor, single point]",–
Cc1cccc(N2C(N)=NC(N)=NC23CCCCC3)c1,active: 2.67 µM,–
CC(C)(C)NC(=O)C(Cc1ccccc1)N1C(=O)c2ccccc2C1=O (stereo not drawn),–,inactive: 3.78%
Cc1ccc(C(=O)N/C(=C\c2ccc(-c3ccccc3[N+](=O)[O-])o2)C(=O)NCCCN(C)C)cc1,"inconclusive: 26.7 µM [inhibitor, partial curve]",–
CN(CC(=O)Nc1ccc(N2CCOCC2)cc1)C(=O)CCc1ccccc1Cl,–,inconclusive: -31.5% [inhibitor]
O=C(Cn1cc2c(n1)CCCC2)Nc1ccccc1Cl,active: 23.8 µM,–
Cc1cccc(NC(=O)COC(=O)CCCC2=NS(=O)(=O)c3ccccc3N2)c1,"inconclusive: 26.7 µM [inhibitor, single point]",–
Cc1cccc(C)c1NC(=S)N(Cc1ccccc1)Cc1cccs1,"inconclusive: 23.8 µM [inhibitor, single point]",–
O=[N+]([O-])c1cccc2ncccc12,active: 3.77 µM,–
ON(CCc1ccccn1)CCc1ccccn1,–,inactive: -12.8%
C=CCN1C(=O)C(O)(CC(=O)c2ccc(OC)cc2OC)c2cc(Br)ccc21 (stereo not drawn),active: 8.44 µM,–
COc1ccccc1CNC(=O)CC(C)C,active: 11.9 µM,–
Cc1ccc([C@H]2N[C@]3(CCCN(Cc4ccccc4)C3=O)[C@H]3C(=O)N(Cc4ccccc4)C(=O)[C@@H]23)cc1,–,inactive: 5.77%
O=[N+]([O-])c1ccc2nc(NS(=O)(=O)c3ccccc3[N+](=O)[O-])sc2c1,"inconclusive: 33.6 µM [inhibitor, partial curve]",–
CSc1nc(-c2ccco2)nn1C(=O)c1ccccc1Cl,"inconclusive: 11.9 µM [inhibitor, partial curve]",–
CCOC(=O)C1(C)C(C(=O)OC)=C(c2ccc(OC)cc2)c2ccccc2N1C(=O)OC (stereo not drawn),"inconclusive: 23.8 µM [inhibitor, single point]",–
O=S(=O)(Nc1nnc(-c2ccccc2)s1)c1ccc(Cl)cc1,"inconclusive: 26.7 µM [inhibitor, single point]",–
Cc1ccc(-c2cc(-c3ccccc3)nc(N/N=C/c3cccnc3)n2)cc1,–,inactive: -13.6%
CC(=O)N1N=C(c2ccco2)CC1c1ccc(Cl)o1 (stereo not drawn),–,inactive: -5.52%
Cc1ccc(C(=O)n2ncn(C)c2=S)cc1,active: 9.47 µM,–
C=CCNC(=O)COC(=O)c1c2c(nc3ccccc13)CCC2,–,inconclusive: -37.1% [inhibitor]

SMILES,Potency,"max response, negative = inhibition"
COCc1nnc(NC(=O)CCS(=O)(=O)c2ccccc2)s1,"inconclusive: 29.9 µM [inhibitor, partial curve]",–
Cc1ccc(C(=O)N/C(=C\c2cccc([N+](=O)[O-])c2)C(=O)NCc2ccncc2)cc1,–,inactive: 7.94%
CCN(CC(=O)Nc1c(C(=O)OC)[nH]c2ccc(C)cc12)c1ccc2c(c1)OCO2,–,inactive: -2.38%
CCOC(=O)c1c(-c2ccc(C)o2)csc1NC(=O)CSc1nncs1,"inconclusive: 37.7 µM [inhibitor, single point]",–
CC(C)c1ccc(OCC(O)CN2CCN(c3ccccc3)CC2)cc1 (stereo not drawn),–,inactive: 1.57% and inactive: 4.28%
Clc1ccc(OCc2nn3c(C4CCCCC4)nnc3s2)cc1,active: 21.2 µM,–
O=C(NCCCn1ccnc1)/C(=C/c1ccco1)NC(=O)c1ccccc1,–,inactive: -3.7%
COC(=O)/C=C/c1sc2nc(C)cc(C)c2c1N=CN(C)C,"inconclusive: 23.8 µM [inhibitor, single point]",–
Cn1ccnc1SCC(=O)c1cccc(C(F)(F)F)c1,"inconclusive: 15 µM [inhibitor, partial curve]",–
S=C(NCc1ccccc1)NCc1cccc(CNC(=S)NCc2ccccc2)c1,active: 26.7 µM,–
COc1cc(O)c(C(C)=O)c(CC(=O)O)c1,–,inconclusive: -31.6% [inhibitor]
Cc1ccc(-c2nn(-c3ccccc3)cc2C2CC(c3ccccc3)=NN2C(=O)CCC(=O)O)cc1 (stereo not drawn),"inconclusive: 42.3 µM [inhibitor, partial curve, poor fit]",–
COc1ccccc1OCC(=O)NCCCn1ccnc1,–,inactive: -9.19%
COCc1nnc(NC(=O)CSCc2ccccc2)s1,active: 21.2 µM,–
COc1ccc(OCC(=O)NC(=S)Nc2ccc(N3CCOCC3)c(Cl)c2)cc1,"inconclusive: 29.9 µM [inhibitor, partial curve]",–
Cc1cc(C(=O)O)ccc1-n1c(C)cc(C=C2C(=O)c3ccccc3C2=O)c1C,"inconclusive: 37.7 µM [inhibitor, single point]",–
CC(=O)Nc1ccc(NC(=O)Cc2ccc(S(=O)(=O)N3CCCCC3)s2)cc1,–,inactive: -9.17%
COc1ccccc1OCC(=O)Nc1cc2c(cc1C(=O)O)OCCCO2,–,inactive: -28.1%
COc1ccc(N2CCC(CNC(=S)Nc3cc(C)ccc3C)C2)cc1 (stereo not drawn),"inconclusive: 26.7 µM [inhibitor, single point]",–
CCC1(C)CC2(CCCN(CCC(=O)c3ccccc3)C2)CCO1 (stereo not drawn),"inconclusive: 21.2 µM [inhibitor, partial curve]",–
O=C(C[n+]1cc(Br)cc2ccccc21)c1ccc(Br)cc1,–,inconclusive: -31.1% [inhibitor]
CS(=O)(=O)N1CCCC(C(=O)Nc2c(F)cccc2F)C1 (stereo not drawn),–,inconclusive: -30.7% [inhibitor]
COc1ccc(CCNC(=O)CCCC(=O)n2nc(C)c3ccccc32)cc1OC,–,inconclusive: -31.4% [inhibitor]
CCNc1nc(NCC)n2c(SCC(=O)Nc3ccc(Br)cc3F)nnc2n1,active: 13.4 µM,–
COc1cc(OC)c(OC)cc1CN1CCN(Cc2cccc(F)c2)CC1,–,inactive: -5.49%

SMILES,Potency,"max response, negative = inhibition"
COc1ccc(-c2cc(C(F)(F)F)n3ncc(C(=O)NCC4CCCO4)c3n2)cc1 (stereo not drawn),active: 7.52 µM,–
N#Cc1cccc(CSc2ncnc(N)n2)c1,–,inconclusive: -32.6% [inhibitor]
C/C=C/c1ccc(OCCCCOc2c(OC)cccc2OC)c(OC)c1,–,inactive: -7.29%
N=c1n(Cc2ccccc2)c2ccccc2n1CC(O)COc1ccc(Cl)cc1Cl (stereo not drawn),"inconclusive: 21.2 µM [inhibitor, partial curve]",–
O=C(CSc1ccccn1)N1CCCC(Nc2ccccc2)C1 (stereo not drawn),"inconclusive: 18.9 µM [inhibitor, partial curve]",–
Cc1ccc(F)c(NC(=O)/C(C#N)=C(\O)c2ccc(C(C)(C)C)cc2)c1,active: 29.9 µM,–
O=C(NNS(=O)(=O)c1ccc([N+](=O)[O-])cc1)c1ccncc1,"inconclusive: 29.9 µM [inhibitor, partial curve]",–
COc1ccc(/C=N/NC(=O)C(C)n2nnc3ccccc32)cc1OC (stereo not drawn),"inconclusive: 26.7 µM [inhibitor, partial curve]",–
O=C(O)c1oc2ccccc2c1CSc1ccc(Cl)cc1,"inconclusive: 26.7 µM [inhibitor, partial curve]",–
CC(C)Cc1nn2c(=O)cc(COc3ccc(NC(=O)c4ccco4)cc3)nc2s1,–,inactive: -7.99%
c1ccc(-c2cc(-c3nn4c(-c5ccco5)nnc4s3)c3ccccc3n2)cc1,"inconclusive: 31.6 µM [inhibitor, partial curve]",–
CCOc1ccc(N(CC(=O)NCc2ccc(F)cc2)S(=O)(=O)c2c(C)noc2C)cc1,"inconclusive: 5.97 µM [inhibitor, partial curve]",–
COc1ccc(-n2nnnc2CNC(=O)C2CC(=O)N(c3ccc(Cl)cc3)C2)cc1 (stereo not drawn),–,inactive: 2.28%
CC1CC(C)CN(C(=O)CNS(=O)(=O)c2ccc(Br)s2)C1 (stereo not drawn),–,inactive: -6.84%
Cc1c(C(=O)Nc2ccc3c(c2)OCO3)sc2ncn(CC(=O)N3CC(C)CC(C)C3)c(=O)c12 (stereo not drawn),–,inactive: -0.745%
Cc1ccc(C(=O)N/N=C\C=C\c2ccc(Br)cc2)cn1,"inconclusive: 8.44 µM [inhibitor, partial curve]",–
Oc1ccc(-c2csc(NCc3ccco3)n2)cc1,"inconclusive: 26.7 µM [inhibitor, single point]",–
NS(=O)(=O)c1ccc(CCNC(=O)CNC(=O)Cc2cccc3ccccc23)cc1,"inconclusive: 23.8 µM [inhibitor, single point]",–
CCCC1=[N+](CC(C)=O)CCn2c(C)ccc21,"inconclusive: 23.8 µM [inhibitor, single point]",–
CC(NC(=O)C1CCN(C(=O)[C@@H]2Cc3ccccc3CN2)CC1)c1ccccc1 (stereo partly drawn),"inconclusive: 21.2 µM [inhibitor, partial curve]",–
N#CC1=C2SCN(c3ccccc3)CN2C(=O)CC1c1c(Cl)cccc1Cl (stereo not drawn),active: 13.4 µM,–
CCOC(=O)c1sc(=S)n(-c2ccccc2)c1NC(C)=O,"inconclusive: 26.7 µM [inhibitor, partial curve]",–
CNCc1ccccc1Sc1cc(O)ccc1O,active: 5.32 µM,–

# Among those listed so far, these have a cyano group:
SMILES,Potency,"max response, negative = inhibition"
N#Cc1cccc(CSc2ncnc(N)n2)c1,–,inconclusive: -32.6% [inhibitor]
Cc1ccc(F)c(NC(=O)/C(C#N)=C(\O)c2ccc(C(C)(C)C)cc2)c1,active: 29.9 µM,–
N#CC1=C2SCN(c3ccccc3)CN2C(=O)CC1c1c(Cl)cccc1Cl (stereo not drawn),active: 13.4 µM,–
